Measurements taken from publication PMC2424043, “Organelle-specific isoenzymes of plant V-ATPase as revealed by in vivo-FRET analysis” (BMC Cell Biology, 2008).
No constants are given. Whether binding was seen depends on the method and setting. Binding seen in cells or lysates may run through a third protein. Binding calls can cover weak binding; strength is not graded here. Where a sequence is shown, tags or fusion partners need not be part of it.

target: VHA-a-YFP (Mesembryanthemum crystallinum V-ATPase subunit a fused to YFP) (Mesembryanthemum crystallinum); assay: FRET or BRET; in vivo FRET by sensitized acceptor emission (confocal laser scanning microscopy) in co-transfected A. thaliana mesophyll protoplasts; CFP fusion as donor, YFP fusion as acceptor; a FRET value of 8-10% is taken as background

Binder | binding
VHA-c3 (V-ATPase proteolipid subunit c, isoform 3) fused to CFP or YFP (natural protein, A. thaliana, UniProt P0DH93 1-164, looked up, VHA-c3, A. thaliana, At4g38920, open reading frame without the stop codon; One molecule for the CFP and the YFP fusion; vectors 35S-CFP-NosT and 35S-YFP-NosT; List of constructs in Additional file 4; also called VHA-c-CFP; VHA-c-YFP; source: A. thaliana mesophyll protoplasts, transiently transfected, in living cells; not shown: CFP or YFP, C-terminal, kept) MSTFSGDETAPFFGFLGAAAALVFSCMGAAYGTAKSGVGVASMGVMRPELVMKSIVPVVMAGVLGIYGLIIAVIISTGINPKAKSYYLFDGYAHLSSGLACGLAGLSAGMAIGIVGDAGVRANAQQPKLFVGMILILIFAEALALYGLIVGIILSSRAGQSRAE | binds
VHA-c"1 (V-ATPase proteolipid subunit c", isoform 1) fused to CFP or YFP (protein, UniProt Q9SZY7 1-180) MSGVVALGHASSWGAALVRISPYTFSAIGIAISIGVSVLGAAWGIYITGSSLIGAAIEAPRITSKNLISVIFCEAVAIYGVIVAIILQTKLESVPSSKMYDAESLRAGYAIFASGIIVGFANLVCGLCVGIIGSSCALSDAQNSTLFVKILVIEIFGSALGLFGVIVGIIMSAQATWPTK | binds
VHA-c"_(trunc) (third and fourth helices of VHA-c"1) fused to CFP (domain or fragment, A. thaliana, UniProt Q9SZY7 88-180, looked up, VHA-c"1 aa 88-180 (helices 3 and 4), A. thaliana; Intermediate construct of the hybrid in vector 35S-CFP-C; fused to the C-terminus of the fluorescent protein; also called truncated VHA-c"; VHA-c"1_(trunc); source: A. thaliana mesophyll protoplasts, transiently transfected, in living cells; not shown: CFP, N-terminal, kept) QTKLESVPSSKMYDAESLRAGYAIFASGIIVGFANLVCGLCVGIIGSSCALSDAQNSTLFVKILVIEIFGSALGLFGVIVGIIMSAQATWPTK | binds
hybrid proteolipid subunit (VHA-c helices 3-4 and VHA-c"1 helices 3-4) fused to CFP (protein, UniProt P0DH93 80-164; Q9SZY7 88-180) NPKAKSYYLFDGYAHLSSGLACGLAGLSAGMAIGIVGDAGVRANAQQPKLFVGMILILIFAEALALYGLIVGIILSSRAGQSRAEQTKLESVPSSKMYDAESLRAGYAIFASGIIVGFANLVCGLCVGIIGSSCALSDAQNSTLFVKILVIEIFGSALGLFGVIVGIIMSAQATWPTK | binds
